EP1792623B1, “Use of extracts and constituents of leontopodium as enhancers of cholinergic function” (Leopold-Franzens-Universität Innsbruck, priority 2005, dated 2007)

Test system: acetylcholinesterase
Type: biochemical
Conditions: 100 µM, after 60 min, n=4; medium control 16477 ± 2759 (part A), 13513 ± 3007 (part B)
Protocol: Experiments are carried out applying Ellman's method in a 96-well microplate assay described by Ingkaninan et al, Journal of Chromatography A 827 (2000) p. 6173 and Rhee et al, Journal of Chromatography A 915 (2001) p. 217-223. In addition to buffer A described above, a buffer containing 0.1 M NaCl and 0.02 M MgClx2.6 H2O in buffer A is used for preparing a 3 mM solution of DTNB. For the microplate assay the substrate ATCI is dissolved 15 mM in water (HPLC grade). The enzyme stock solution is diluted with buffer A to get 0.22 U/ml. In the 96-well plates, 25 µl of 15 mM ATCl, 125 µl of 3 mM DTNB, 50 µl of buffer A, and 25 µl of sample (10 mM in MeOH, respectively DMSO (dimethylsulfoxide), diluted ten times with buffer A) are added. […] […] The absorbance of the product (2-nitrobenzoate-5-mercapto thioline) is measured at 405 nm with a Chameleon 5025 (Hidex, Finland) microplate reader 0, 15, 30, 45 and 60 minutes after adding 25 µl of 0.22 U/ml acetylcholinesterase-solution to the reaction mixture. All experiments are performed 4 times (n=4) and the data are statistically processed using the SPSS 11.5 program package. Percentage of inhibition is calculated by comparing the rates for the sample to the blank (10% MeOH, resp. DMSO, in buffer).

| Compound | absorption x 10^5 (mean ± sd) |
| --- | --- |
| 1-acetyloxy-3-angeloyloxy-(4E,6E)-tetradeca-4,6-dien-8,10,12-triyne and the 4E,6Z isomer | 11293 ± 2558 |
| 15-acetoxy-modhephene | 5891 ± 1237 |
| C=C(CO)[C@H]1Oc2ccc(C(C)=O)cc2[C@H]1O[C@@H]1O[C@H](CO)[C@@H](O)[C@H](O)[C@H]1O (relative stereo) [1-{(2R*,3R*)-2-[1-(hydroxymethyl)vinyl]-3-(β-D-gluco-pyranosyloxy)-2,3-dihydro-1-benzofuran-5-yl}-ethanone] | 16496 ± 2091 |
| CC(=O)OCC1=C[C@]2(C)CCC3[C@H](C)CCC32C1C (relative stereo) [[(1R*,3aS,6R)-1,3a,6-trimethyl-1,3a,4,5,5a,6,7,8-octahydrocyclo-penta[c]pentalen-2-yl]methylacetat] | 6288 ± 937 |
| C=C(C)C1COc2cc3oc(=O)ccc3c(O)c2O1 (stereo not drawn) [5-hydroxy-obliquin] | 16085 ± 2083 |
| C=C(C)C1COc2cc3oc(=O)ccc3c(OC)c2O1 (stereo not drawn) [5-methoxy-obliquin] | 15856 ± 2143 |
| C/C=C(/C)C(=O)OC[C@H]1[C@@H](Cc2cc(OC)c(OC)c(OC)c2)CO[C@@H]1c1cc(OC)c(OC)c(OC)c1 [[(2S,3R,4R)-4-(3,4,5-trimethoxy-benzyl)-2-(3,4,5-trimethoxy-phenyl)tetrahydrofuran-3-yl]methyl-(2Z)-2-methylbut-2-en-oate] | 14328 ± 2805 |
| C/C=C(/C)C(=O)OC[C@H]1[C@@H](Cc2ccc(OC)c(OC)c2)CO[C@@H]1c1cc(OC)c(OC)c(OC)c1 [[(2S,3R,4R)-4-(3,4-dimethoxy-benzyl)-2-(3,4,5-trimethoxy-phenyl)tetrahydrofuran-3-yl]methyl-(2Z)-2-methylbut-2-en-oate] | 12842 ± 2984 |
| C/C=C(/C)C(=O)OC[C@H]1[C@@H](Cc2ccc(OC)c(OC)c2)CO[C@@H]1c1ccc(OC)c(OC)c1 [[(2S,3R,4R)-4-(3,4-dimethoxy-benzyl)-2-(3,4-dimethoxy-phenyl)tetrahydrofuran-3-yl]methyl-(2Z)-2-methylbut-2-en-oate] | 13581 ± 2096 |
| C=C(C)C1COc2cc3oc(=O)ccc3cc2O1 (stereo not drawn) [obliquine] | 13450 ± 1956 |
| C[C@@H]1CC[C@@H]2C(C)(C)C[C@]3(C)CC=C[C@]123 [silphinene] | 13024 ± 2561 |
| CC1=C[C@@H]2[C@@H](CC1)[C@@](C)(O)CC[C@H]2C(C)C [t-Cadinol] | 14720 ± 1917 |
| (4a,7b,8a,9b,15a)-7,9-dihydroxy-15-{[(2Z)-2-methylbut-2-enoyl]oxy} kaur-16-en-19-oate | 6241 ± 1352 |
| bisabolan A | 12599 ± 1728 |
| bisabolan E | 5811 ± 1238 |
| ent-kaur-16-enic-19-acid | 10559 ± 1391 |
| isocomene | 8063 ± 1344 |
| β -isocomene | 7958 ± 1539 |
